Assay results taken from patent publication US9764037B2 (Victoria Link Limited, priority 2012, dated 2017).

Test: general procedure: Fmoc solid-phase peptide synthesis; trityl chloride resin (e.g. also 2-chlorotrityl chloride, Wang, Sasrin, HMPB); Rink amide, Pal, MBHA or Sieber for C-term
Conditions: conjugation step

| Substance | conjugation yield [%] | final HPLC purity [%] |
| --- | --- | --- |
| 2-(aminooxy)acetyl-FFRKKAVYNFATM | 76 | 94.0 |
| 4-pentynoyl-FFRKAVGALEGPRNQDWLGVPRQL (conjugated to alpha-GalCer; Synthetic Immunogen) | 80 | 95.1 |
| 4-pentynoyl-FFRKDLAQMFFCFKELEGW | 36 | 96.2 |
| 4-pentynoyl-FFRKKISQAVHAAHAEINEAGRESIINFEKL-TEWT | 69 | 97.6 |
| 4-pentynoyl-FFRKNLVPMVATV | 77 | 94.2 |
| 4-pentynoyl-FFRKRAHYNIVTF | 56 | 96.7 |
| 4-pentynoyl-FFRKSVYDFFVWLKFFHRTCKCTGNFA | 31 | 94.8 |
| 4-pentynoyl-ILARNLVPMVATV | 50 | 94.8 |
| 4-pentynoyl-SVYDFFVWLKFFHRTCKCTGNFA | 33 | 82 |
